Assay results taken from patent US20110217715A1, “GENE EXPRESSION IN DUCHENNE MUSCULAR DYSTROPHY” (CHILDREN'S HOSPITAL MEDICAL CENTER, priority 2008, published 2011).
This continues a long series; more values of the same kind are listed elsewhere.

System: mRNA expression in peripheral blood of individuals with DMD
Experiment: Whole-blood gene expression microarray: DMD administered deflazacort vs DMD administered prednisone
Assay type: in vivo, human
Details: vs. prednisone
Method: Fifteen ml of blood was collected from each individual into 6 PAXgene® Vacutainer® tubes (PreAnalytiX, Germany) by antecubital fossa venipuncture. PAXgene® tubes contain a proprietary reagent that immediately stabilizes RNA, thus reducing RNA degradation and minimizing gene expression changes following phlebotomy. The tubes were then inverted 20 times, then remained undisturbed for 2 h at room temperature (about 19° C. to about 22° C.), and then stored at -70° C. until processed. Total RNA was isolated using the Paxgene® blood RNA kit (PreAnalytiX, Germany) according to the manufacturers instructions. The RNA isolated is from all cells in whole blood. Typical yields of total RNA isolated from about 7.5 ml of human whole blood were between 10 μg RNA and 40 μg RNA. RNA quality and purity was analyzed by spectrophotometry using the Nanodrop ND-1000, and RNA integrity was analyzed using the Agilent 2100 Bioanalyzer. […] Sample labeling, hybridization to chips, and image scanning were performed using standard Affymetrix protocols. For each whole blood sample from control individuals and individuals with DMD, total RNA was labeled using the One-Cycle Target Labeling protocol and hybridized to the arrays. […] Double-stranded cDNA synthesis, biotin-labeled cRNA synthesis, and cRNA fragmentation were performed according to the Affymetrix GeneChip Eukaryotic Expression Analysis protocol. The labeled, fragmented cRNA (15 μg) was hybridized at 45° C. overnight. After hybridization, the array was washed and stained. The arrays were scanned with an argon-ion laser at λ=570 nm, with a resolution of 3 μm/pixel (Affymetrix, Inc.). After scanning the array, the raw probe level values for each probe were saved in Affymetrix.cel files. […] Statistical analyses, including t-test analyses, unsupervised hierarchical clustering, and principal component analyses were conducted using Genespring 7.2 software ([…]® 7, Silicon Genetics, Redwood City Calif.). […] Corrections for multiple comparisons used a Benjamini-Hochberg False Discovery Rate (FDR) of 0.05, disclosed in Tang et al., J Cereb Blood Flow Metab 26 (2006) 1089, which is expressly incorporated by reference herein in its entirety. […] Sample processing and array hybridization, probe-level data analysis, and statistical analysis were identical to Example 1.

## CC(=O)OCC(=O)[C@@]12N=C(C)O[C@@H]1C[C@H]1[C@@H]3CCC4=CC(=O)C=C[C@]4(C)[C@H]3[C@@H](O)C[C@@]12C [deflazacort]
NDE1, BF973292, nucleic acid 2138
  p-value: 0.024
NDE1, NM_017668, nucleic acid 2139
  p-value: 0.0358
NFIC, AW134798, nucleic acid 2140
  p-value: 0.0141
NKTR, AI880383, nucleic acid 2141
  p-value: 0.0222
NM_173704, nucleic acid 2284
  p-value: 0.0147
NOTCH2, AA291203, nucleic acid 2142
  p-value: 0.00739
NOTCH2, AF308601, nucleic acid 1046
  p-value: 0.0265
NOTCH2NL, AW516297, nucleic acid 2143
  p-value: 0.0362
NSF, AK025172, nucleic acid 2144
  p-value: 0.0411
NUDT4, NUDT4P1, AF191653, nucleic acid 1738
  p-value: 0.0352
OLIG1, AL355743, nucleic acid 1399
  p-value: 0.00583
OSBP2, BE501253, nucleic acid 2319
  p-value: 0.0334
OSTF1, NM_012383, nucleic acid 2145
  p-value: 0.0203
PACSIN2, NM_007229, nucleic acid 2146
  p-value: 0.0409
PAPD4, AW104325, nucleic acid 2147
  p-value: 0.00878
PARP9, AI738416, nucleic acid 2148
  p-value: 0.0394
PARVG, AL355092, nucleic acid 2149
  p-value: 0.0293
PB1, H79538, nucleic acid 2150
  p-value: 0.0371
PBX2, BE397715, nucleic acid 2151
  p-value: 0.0221
PCBP2, AW025150, nucleic acid 2152
  p-value: 0.0394
PDLIM5, NM_006457, nucleic acid 2153
  p-value: 0.0238
PECAM1, AA702701, nucleic acid 2155
  p-value: 0.00909
PECAM1, M37780, nucleic acid 2154
  p-value: 0.00421
PF4V1, NM_002620, nucleic acid 2156
  p-value: 0.0164
PFKFB3, NM_004566, nucleic acid 2157
  p-value: 0.0338
PHACTR2, AA551142, nucleic acid 2158
  p-value: 0.039
PHACTR2, NM_014721, nucleic acid 2159
  p-value: 0.0451
PHCA, R12678, nucleic acid 2160
  p-value: 0.0221
PHF21A, BC015714, nucleic acid 2161
  p-value: 0.0231
PHGDHL1, AF339764, nucleic acid 2162
  p-value: 0.0444
PICALM, AL135735, nucleic acid 2164
  p-value: 0.0165
PICALM, AV722190, nucleic acid 762
  p-value: 0.0363
PLEK, NM_002664, nucleic acid 2165
  p-value: 0.000252
PLEKHA2, BF347859, nucleic acid 886
  p-value: 0.0183
PLEKHM1, AB002354, nucleic acid 2166
  p-value: 0.0134
PLSCR1, AI825926, nucleic acid 2167
  p-value: 0.0487
PLXNB2, BC004542, nucleic acid 2168
  p-value: 0.0177
PPGB, NM_000308, nucleic acid 2170
  p-value: 0.0193
PPIG, AW970944, nucleic acid 2171
  p-value: 0.011
PPM1F, BC013798, nucleic acid 2172
  p-value: 0.0208
PPP3CA, AA532718, nucleic acid 2173
  p-value: 0.0165
PRKACA, NM_002730, nucleic acid 2174
  p-value: 0.00184
PRKAR1A, AI682905, nucleic acid 2175
  p-value: 0.0262
PRKAR2B, NM_002736, nucleic acid 1688
  p-value: 0.0441
PRKCD, NM_006254, nucleic acid 2176
  p-value: 0.0077
PROK2, AF182069, nucleic acid 2177
  p-value: 0.0338
PSENEN, NM_018468, nucleic acid 2178
  p-value: 0.0201
PTGS1, NM_000962, nucleic acid 329 (first entry)
  p-value: 0.0419
PTGS1, NM_000962, nucleic acid 329 (second entry)
  p-value: 0.0226
PTGS1, S36219, nucleic acid 1667
  p-value: 0.0474
PTGS2, AY151286, nucleic acid 2179
  p-value: 0.0187
PTPN12, AL079909, nucleic acid 2180
  p-value: 0.00163
PTPRE, AA775177, nucleic acid 2181
  p-value: 0.0161
RAB2B, AA531016, nucleic acid 2320
  p-value: 0.0428
RAB8A, BC002977, nucleic acid 2185
  p-value: 0.00561
RAB11FIP1, NM_025151, nucleic acid 2182
  p-value: 0.0397
RAB11FIP4, BG248313, nucleic acid 465
  p-value: 0.047
RAB18, AU145607, nucleic acid 2183
  p-value: 0.0414
RAB31, NM_006868, nucleic acid 2184
  p-value: 0.0378
RAC1, AJ012502, nucleic acid 551
  p-value: 0.0328
RAI17, AF070622, nucleic acid 1313
  p-value: 0.0318
RAP1A, AW793677, nucleic acid 2186
  p-value: 0.0194
RAP80, AF113675, nucleic acid 2187
  p-value: 0.00717
RARA, AJ417079, nucleic acid 2188
  p-value: 0.00262
RARA, U41742, nucleic acid 2321
  p-value: 0.0198
RASA1, AK021812, nucleic acid 2189
  p-value: 0.0372
RBBP5, NM_005057, nucleic acid 2190
  p-value: 0.0383
REL, NM_002908, nucleic acid 2191
  p-value: 0.0166
RERE, H71242, nucleic acid 2192
  p-value: 0.0354
RFWD2, BF725688, nucleic acid 2193
  p-value: 0.0334
RFX2, AK024288, nucleic acid 2194
  p-value: 0.0472
RG9MTD3, AI214944, nucleic acid 2195
  p-value: 0.0449
RHOQ, BC033251, nucleic acid 2196
  p-value: 0.0402
RIN3, AA625133, nucleic acid 2197
  p-value: 0.0322
RIT1, AL037450, nucleic acid 1675
  p-value: 0.0214
RNF24, BC000213, nucleic acid 2198
  p-value: 0.0415
ROCK1, AL050032, nucleic acid 2199
  p-value: 0.0356
RSU1, AW515913, nucleic acid 2200
  p-value: 0.0152
RUFY1, NM_025158, nucleic acid 2201
  p-value: 0.0258
RUFY2, NM_017987, nucleic acid 2202
  p-value: 0.00853
SEC14L1, NM_003003, nucleic acid 2203
  p-value: 0.0303
SEC23B, BC005032, nucleic acid 2204
  p-value: 0.0301
SECTM1, BF939675, nucleic acid 2205
  p-value: 0.0499
SERPINA1, AF119873, nucleic acid 2207
  p-value: 0.0459
SERPINA1, NM_000295, nucleic acid 2206
  p-value: 0.022
SF3A2, L21990, nucleic acid 2208
  p-value: 0.0469
SGK, NM_005627, nucleic acid 2209
  p-value: 0.028
SH3BGRL2, AL035700, nucleic acid 1736
  p-value: 0.0258
SIGLEC7, NM_016543, nucleic acid 2210
  p-value: 0.0193
SIRPB1, NM_006065, nucleic acid 2212
  p-value: 0.0432
SLC7A7, NM_003982, nucleic acid 2214
  p-value: 0.0242
SLC25A36, AL136803, nucleic acid 56
  p-value: 0.0384
SLC33A1, BC029450, nucleic acid 2213
  p-value: 0.0407
